Experimental data from article PMC7819943, “Rice protein-binding microarrays: a tool to detect cis-acting elements near promoter regions in rice”.
The other results are listed elsewhere or left out.

Protein sequences, listed by entry. Tags and fused reporters are not part of them.
UniProt Q0JBA9, entry or part of it: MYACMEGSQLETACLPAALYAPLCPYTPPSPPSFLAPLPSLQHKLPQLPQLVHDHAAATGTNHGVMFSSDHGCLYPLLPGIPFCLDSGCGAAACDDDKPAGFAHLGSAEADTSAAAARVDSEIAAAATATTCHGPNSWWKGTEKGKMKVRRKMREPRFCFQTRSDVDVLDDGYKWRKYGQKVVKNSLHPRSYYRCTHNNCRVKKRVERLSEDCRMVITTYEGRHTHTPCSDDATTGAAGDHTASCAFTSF

biological target: OsWRKY34 (Oryza sativa, UniProt Q0JBA9 1-250); assay: protein-binding microarray (RPBM); PBS, 2% BSA, 51.3 ng/ul salmon testes DNA, 50 uM zinc acetate, 200 nM TF, 25 C, 1 h; high values mean tight binding; settings: protein: recombinant; tags: N-terminal polyhistidine and DsRed monomer fusion (pET32a); label: CyDye5-dUTP incorporated in the synthesized complementary strand; 3' TTTTT single-stranded linker to array surface; dsDNA, one strand shown
How it was run: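 Polyhistidine-tagged DsRed fusions of transcription factors, joined at the N-terminus, were expressed in E. coli BL21-CodonPlus and isolated on Ni–NTA. They were incubated at 200 nM for 1 h at 25 °C on a custom Agilent array, double-stranded and BSA-blocked, in PBS with 2% BSA, salmon testes DNA and 50 µM zinc acetate. The binding signal is per-feature fluorescence intensity (arbitrary units) read on an Axon 4000B scanner after washing.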

**Q.** With “CGTTGTGGTGGTGGTGGTGGTGAGCGCGTGGGCGCGTAAACGGAGTCACCTAGTGCAG” as the sequence, how does the binding signal read?
**A.** 9060 fluorescence intensity (a.u.)

**Q.** For “TCTCTGCACGCTGCATTCCAACACGAAAGCCAAGCATTACCGGAGTCACCTAGTGCAG”, which binding signal is on record?
**A.** 8080 fluorescence intensity (a.u.)

**Q.** For “GAGTGTACTGCCTTTATCTGCTGTCTGATTGCTGCATTTCCGGAGTCACCTAGTGCAG”, which binding signal is on record?
**A.** 9700 fluorescence intensity (a.u.)

**Q.** How did the binding signal turn out when “AGCACGTTTGACTTCCCTCCCCTCACCCTCCACATGCTGGCGGAGTCACCTAGTGCAG” was run?
**A.** 9210 fluorescence intensity (a.u.)

**Q.** For “TCCTTGTCTTCTCATGTTGCACCACGCCGCAGCTTAGGAGCGGAGTCACCTAGTGCAG”, which binding signal is on record?
**A.** 12700 fluorescence intensity (a.u.)

**Q.** Which binding signal does the source give for “AGCGCGCCGGCCTCTCCTTCCCCGTAGCCGCTCGGCGCGCCGGAGTCACCTAGTGCAG” here?
**A.** 8810 fluorescence intensity (a.u.)

**Q.** How did the binding signal turn out when “TTAAGTATATTGGTTTTGTAGGTTGAGTGACGCGCTATTTCGGAGTCACCTAGTGCAG” was run?
**A.** 10400 fluorescence intensity (a.u.)

**Q.** For “GCATTGCCCCTCGCCTGTCGCTGCCTGCGCCTTGTCCAGCCGGAGTCACCTAGTGCAG”, which binding signal is on record?
**A.** 8640 fluorescence intensity (a.u.)

**Q.** How did the binding signal turn out when “GGGCGAGTGGAGGAGGAGGGGTAGTCTCGTCATTTGCCACCGGAGTCACCTAGTGCAG” was run?
**A.** 10900 fluorescence intensity (a.u.)

**Q.** For “CTCGCCTTTTTTTAAGCTCTTTTCTATTCACGTGCCTACGCGGAGTCACCTAGTGCAG”, which binding signal is on record?
**A.** 9000 fluorescence intensity (a.u.)

**Q.** With “GTAGACCGCTGGGCTGGGCTGGGCTGCGCTGGGTTGGGAGCGGAGTCACCTAGTGCAG” as the sequence, how does the binding signal read?
**A.** 8740 fluorescence intensity (a.u.)

**Q.** How did the binding signal turn out when “ACAAAATATTCTTTTGCATTGAAGCCGACCGTTTTATTTTCGGAGTCACCTAGTGCAG” was run?
**A.** 8560 fluorescence intensity (a.u.)

**Q.** “TCCTCCGATCCCAATCCAACGCTCCAACCCCACGCTCCCACGGAGTCACCTAGTGCAG” was tested. Which binding signal did it give?
**A.** 8570 fluorescence intensity (a.u.)

**Q.** “GCGAGCTCGCCGTCGTGGCGACGACCACATCTGCAGCTACCGGAGTCACCTAGTGCAG” was tested. Which binding signal did it give?
**A.** 8240 fluorescence intensity (a.u.)

**Q.** With “GCTTGCTCTGAATAGTTGAATATTGTCCCTCTGTCTCGATCGGAGTCACCTAGTGCAG” as the sequence, how does the binding signal read?
**A.** 8850 fluorescence intensity (a.u.)

**Q.** How did the binding signal turn out when “GTCAGTCCTTCAGTCAGTCAGTCACCGTGCCCCAGACGAACGGAGTCACCTAGTGCAG” was run?
**A.** 8540 fluorescence intensity (a.u.)

**Q.** Which binding signal does the source give for “TATTTTCTGTAATTTTATCCATGTTTTGTGTCTGAGTTTCCGGAGTCACCTAGTGCAG” here?
**A.** 9350 fluorescence intensity (a.u.)

**Q.** For “TCACCGCTGCTCGATTCCTTTACTCTTATACCTTCGCCACCGGAGTCACCTAGTGCAG”, which binding signal is on record?
**A.** 11500 fluorescence intensity (a.u.)

**Q.** “ATCGTCCGTCCGTGTTCTTGTAATCTAGCTCGCCACCTCGCGGAGTCACCTAGTGCAG” was tested. Which binding signal did it give?
**A.** 12400 fluorescence intensity (a.u.)

**Q.** For “ATTTTTCCCTCACTGTCTACTATTTTTCATTTTTTATATGCGGAGTCACCTAGTGCAG”, which binding signal is on record?
**A.** 8940 fluorescence intensity (a.u.)

**Q.** “ATTATTTGGTTGGTAGTAGTATCGGTGGCCGACTTAAACTCGGAGTCACCTAGTGCAG” was tested. Which binding signal did it give?
**A.** 9520 fluorescence intensity (a.u.)

**Q.** “TCGTTTGATTAACCAGGAATTCCTCGTCTGCCTTAATGGTCGGAGTCACCTAGTGCAG” was tested. Which binding signal did it give?
**A.** 8280 fluorescence intensity (a.u.)

**Q.** How did the binding signal turn out when “CCGTCCCTCTCACTCTCCCGTGGACCGTGCGCGCTCTAGCCGGAGTCACCTAGTGCAG” was run?
**A.** 8500 fluorescence intensity (a.u.)

**Q.** With “CTTTAGTCCATCTACCGAGCCAATCACCTATTATATTTGTCGGAGTCACCTAGTGCAG” as the sequence, how does the binding signal read?
**A.** 9360 fluorescence intensity (a.u.)

**Q.** With “CTTTCCGTCGCGTCTCGTCTTCTCATGGTTGCAACTCTCCCGGAGTCACCTAGTGCAG” as the sequence, how does the binding signal read?
**A.** 18100 fluorescence intensity (a.u.)

**Q.** Which binding signal does the source give for “ACCTTCTTGAGCGCCACGATCTTGCCCGTCACCGTGTCCCCGGAGTCACCTAGTGCAG” here?
**A.** 9750 fluorescence intensity (a.u.)

**Q.** With “CTTCTCATTCACCTCCATCTCATCTCCATTACACTGCATGCGGAGTCACCTAGTGCAG” as the sequence, how does the binding signal read?
**A.** 9600 fluorescence intensity (a.u.)

**Q.** With “TCGCGCCGCCCACTTCGTCATCCTCCTCGCGTACTCCGCTCGGAGTCACCTAGTGCAG” as the sequence, how does the binding signal read?
**A.** 9420 fluorescence intensity (a.u.)

**Q.** For “CGTACCTAGCCAGCAGATTTATGTTTGTTTGGTTGACTGCCGGAGTCACCTAGTGCAG”, which binding signal is on record?
**A.** 8060 fluorescence intensity (a.u.)

**Q.** Which binding signal does the source give for “GGACGGCGCGGGTGGGTGGGCCCCACAGGGCGGTGACTGACGGAGTCACCTAGTGCAG” here?
**A.** 8840 fluorescence intensity (a.u.)

**Q.** How did the binding signal turn out when “CACAATGTCAGGCAACCTCGTCATATATTTGATCCCGCCGCGGAGTCACCTAGTGCAG” was run?
**A.** 8470 fluorescence intensity (a.u.)

**Q.** For “CACGCACACACCGCGGCGCCGCCCACTCGATCGAAGCACCCGGAGTCACCTAGTGCAG”, which binding signal is on record?
**A.** 8410 fluorescence intensity (a.u.)

**Q.** “CCAATCCTATAAACCGCTACTCTGGTTCCATAATTCTTACCGGAGTCACCTAGTGCAG” was tested. Which binding signal did it give?
**A.** 11100 fluorescence intensity (a.u.)

**Q.** With “ATATGTCCCGCTGGGGTGTCCACAATCTGCACGCCATATCCGGAGTCACCTAGTGCAG” as the sequence, how does the binding signal read?
**A.** 8660 fluorescence intensity (a.u.)

**Q.** Which binding signal does the source give for “GCTTTTCCTGTCAATGTTTGTTTGTGTAATGTTGTTATACCGGAGTCACCTAGTGCAG” here?
**A.** 11600 fluorescence intensity (a.u.)

**Q.** For “ATATATATATATATATATATATATATAATCTACCTTGTAACGGAGTCACCTAGTGCAG”, which binding signal is on record?
**A.** 9470 fluorescence intensity (a.u.)

**Q.** For “GGAGGAGGAGGTGGTGGTGGTGGTGAAGCCGCGGAGGTGCCGGAGTCACCTAGTGCAG”, which binding signal is on record?
**A.** 18000 fluorescence intensity (a.u.)

**Q.** With “TCCTCGCCTCTCGGGCACGCACCACTGACCACCCTCCTTTCGGAGTCACCTAGTGCAG” as the sequence, how does the binding signal read?
**A.** 9010 fluorescence intensity (a.u.)

**Q.** “ACATAGAGGGGCGGGTTAATCAGGAGGTAAGAACAAGTGGCGGAGTCACCTAGTGCAG” was tested. Which binding signal did it give?
**A.** 11700 fluorescence intensity (a.u.)

**Q.** Which binding signal does the source give for “TCCAAGTCCCGCTGCCCTCGCCGCCAATCGGTCGCCCGTACGGAGTCACCTAGTGCAG” here?
**A.** 8990 fluorescence intensity (a.u.)

**Q.** “AATACCCTCATGGTCGTTCTTCCACCTCCTTAAATAGCTACGGAGTCACCTAGTGCAG” was tested. Which binding signal did it give?
**A.** 10100 fluorescence intensity (a.u.)

**Q.** How did the binding signal turn out when “TAAATGGTGGTGTTTTTCTCGCTTTGAGTCACATGGTTATCGGAGTCACCTAGTGCAG” was run?
**A.** 12100 fluorescence intensity (a.u.)
